Binding data for one substance are collected here from article PMC8423574.

The target of this test is T1, p21 (rat (endogenous in H9C2)) (UniProt Q64315).
T1 sequence: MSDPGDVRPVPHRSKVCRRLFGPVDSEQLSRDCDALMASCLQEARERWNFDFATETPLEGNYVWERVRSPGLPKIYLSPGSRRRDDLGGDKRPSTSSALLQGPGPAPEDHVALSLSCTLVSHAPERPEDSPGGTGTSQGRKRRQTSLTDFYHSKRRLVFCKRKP
Briefly: co-IP; lysate of H9C2 cells after IH stimulation; precipitated with p21 antibody or normal rabbit IgG and protein G Sepharose at 4°C; lysis buffer 50 mM Tris-HCl (pH 7.5), 150 mM NaCl, 0.5% Triton X-100, 1 mM EDTA; Western blot.

Results are given in words; binding and its absence hold for the method and conditions named. Binding seen in cells or lysates may run through a third protein. Binding calls can cover weak binding; strength is not graded here.

For “makorin ring finger protein 1 (MKRN1) (rat (endogenous in H9C2))”, the binding result was “binds”.
